Library screen at single concentrations

Sequences of proteins named here, by UniProt entry; tags and fusion partners are left off. Residues count along the entry.
UniProt Q4DA54, 1-478: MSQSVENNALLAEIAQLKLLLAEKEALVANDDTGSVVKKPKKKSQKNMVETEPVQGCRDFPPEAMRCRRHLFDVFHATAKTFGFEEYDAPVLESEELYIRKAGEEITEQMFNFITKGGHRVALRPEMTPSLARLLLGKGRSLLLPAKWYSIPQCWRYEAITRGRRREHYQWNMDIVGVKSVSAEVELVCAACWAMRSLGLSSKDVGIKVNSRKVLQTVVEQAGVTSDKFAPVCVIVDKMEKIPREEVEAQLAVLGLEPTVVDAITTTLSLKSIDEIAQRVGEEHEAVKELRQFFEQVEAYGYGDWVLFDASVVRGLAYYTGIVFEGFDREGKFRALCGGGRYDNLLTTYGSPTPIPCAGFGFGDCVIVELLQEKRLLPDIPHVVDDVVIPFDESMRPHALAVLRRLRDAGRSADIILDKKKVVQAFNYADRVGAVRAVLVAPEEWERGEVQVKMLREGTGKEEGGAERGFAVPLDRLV
UniProt A4I591, 1-473: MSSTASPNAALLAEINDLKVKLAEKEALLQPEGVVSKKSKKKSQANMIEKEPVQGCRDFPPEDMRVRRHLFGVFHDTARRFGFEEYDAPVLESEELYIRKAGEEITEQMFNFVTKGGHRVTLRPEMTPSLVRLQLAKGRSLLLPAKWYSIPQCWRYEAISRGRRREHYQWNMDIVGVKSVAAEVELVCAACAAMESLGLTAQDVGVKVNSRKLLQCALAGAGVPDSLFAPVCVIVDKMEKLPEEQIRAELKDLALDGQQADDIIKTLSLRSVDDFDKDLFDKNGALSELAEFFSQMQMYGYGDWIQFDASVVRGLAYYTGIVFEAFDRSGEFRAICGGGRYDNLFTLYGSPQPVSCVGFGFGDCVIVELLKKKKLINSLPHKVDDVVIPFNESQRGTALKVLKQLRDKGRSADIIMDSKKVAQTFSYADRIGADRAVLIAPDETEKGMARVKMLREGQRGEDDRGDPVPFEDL

TcHisRS: 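Histidine-tRNA ligase, Trypanosoma cruzi CL Brener (UniProt Q4DA54). Enzyme assay of histidyl-tRNA synthetase; the read-out is not stated. Tested at 30 µM. The record gives no direction; compounds that gave an IC50 in retests scored well above the rest, so higher reads as stronger inhibition. Size under these conditions: about 69,000 compounds, about 31 of them at 50% or above in at least one test.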
LiHisRS: 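Enzyme assay of histidyl-tRNA synthetase; the read-out is not stated. Target: Histidine-tRNA ligase, Leishmania infantum (UniProt A4I591). Tested at 30 µM. Higher reads as stronger inhibition (inferred: compounds with an IC50 in retests scored well above the rest). The assay is labelled LdHisRS but filed under L. infantum. Of about 69,000 compounds tested this way, about 410 (0.6%) reached 50% or more in at least one test.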

Results are given as percent effect.
How 0% and 100% were set is not recorded. Most values in the screen are low, and negative values occur.
This is an unselected part of the compounds tested.

structure,TcHisRS,LiHisRS
COCCn1ccnc1CN(Cc1ccccn1)Cc1sccc1C,3.352,4.167
CCCC(=O)N(Cc1ccncc1)C(C)CC (configuration not stated),0.9804,4.8
O=S(=O)(Cc1ccccc1F)Cc1nnnn1C1CC1,9,17.39
CN1CCC(CO[C@H]2CN(C(=O)c3cccn3C)[C@@H]3COC[C@H]23)CC1,-3.093,6
CN(C)C(=O)Cc1ccccc1NCc1cccc(F)c1F,4.39,11.86
Cc1cnccc1CN1C[C@@H](O)[C@H](Oc2cccc(F)c2)C1,2.703,8.333
Cc1cc(N2CCN(C(=O)C(C)n3ccnc3C(C)C)CC2)cc(C)n1 (configuration not stated),9.036,17.58
Cc1nnc(CNC(=O)C2CSCCC(=O)N2)o1 (configuration not stated),7.212,21.95
CN1CCC(c2nc3ccc(-c4cccc(F)c4)cn3n2)CC1,-0.5587,13.46
CC(C)(C)c1ccc(C(=O)NCCCNC(=O)c2cnccn2)cc1,6.78,9.79
Cc1ncsc1C(=O)NCc1ccnc(OCC(F)(F)F)c1,9.467,16.07
CC(C)n1ccnc1C1CCN(C(=O)c2ccccc2)CC1,-0.8264,20.95
CCc1cc2c(N3CCCC(c4ccn[nH]4)C3)ncnc2s1 (configuration not stated),8.511,1.429
Cc1ccc(N(CCC#N)C(=O)CN2CCCC2c2ccsc2)cc1C (configuration not stated),14.29,33.03
Cc1cnn(CC2CN(c3ccc(C#N)cn3)CCO2)c1 (configuration not stated),0,-4.464
COc1cc(N2CC[C@H]3OCC[C@@]3(COc3nccc(C)n3)C2)ncn1,1.149,7.895
Cc1cccc(-n2ncc(C(=O)N3CCn4c(C)nnc4C3)c2C)c1,0,-4.545
COC(=O)CCC(=O)N1CCC2(CN(Cc3ccccc3F)C2)C1,1.869,9.722
O=C([C@@H]1C[C@@H]2CCN(Cc3ccccn3)C[C@H]2O1)N1CCCO1,6.452,11.5
Cc1nn(C)c(N2CCCN(C)CC2)c1CNC(=O)C(C)(C)C,7.522,22.12
CC(C)c1cc(NC2CCCN(C(=O)c3cccs3)C2)ncn1 (configuration not stated),10.67,12.82
Cc1nc(CN2C(=O)CCC23CCN(Cc2ccoc2)CC3)cs1,5.714,26.39
COc1ccc(C2CCCN2c2ccc(C#N)cn2)c(OC)c1 (configuration not stated),7.595,14.58
Cc1cccc(CN2CCC3(CCN(c4ncccn4)C3)C2=O)c1 (configuration not stated),10.68,17.31
COCCNC(=O)NC1(c2nc(-c3ccncc3)no2)CCCCC1,6.186,6.957
COC(=O)c1ccc(CN(C)C(=O)c2cnsn2)cc1,4.327,-2.439
CCc1nnsc1C(=O)NCCn1nc2ccccn2c1=O,-0.3831,18.46
Cc1nc(C(C)N(C)Cc2nc(CCC(C)C)no2)c(C)s1 (configuration not stated),7.216,2.857
CC(C)NC(=O)COc1nc(C(C)C)no1,-2.5,11.54
Cc1ccccc1CS(=O)(=O)CC(=O)N(C)Cc1ccccc1F,9.412,19.84
CCCNC(=O)c1[nH]nc(C2CC2)c1Br,3.867,0
Cc1cccc(CCNC(=O)CCS(=O)(=O)C2CCCC2)c1,3.247,9.677
Clc1ccc2[nH]c3c(c2c1)CCCC3c1nn[nH]n1 (configuration not stated),2.97,1.099
CN(C)C(=O)C1CCCN1CCCNC(=O)c1ccccc1Cl (configuration not stated),-1.22,22.89
CN(C)C(=O)[C@H]1C[C@@H]2CN(CCc3ccccc3)C[C@H]1O2,6.897,17.65
CN(Cc1nccn1C)C1CCCN(Cc2noc(C3CC3)n2)C1 (configuration not stated),5.143,11.86
CN(C)S(=O)(=O)c1ccc(=O)n(CC2CCCCO2)c1 (configuration not stated),-3.571,15.93
Cc1ccc2c(n1)N(Cc1cccnc1)CCN(C(=O)C1CC1)C2,10.92,17.43
CCCOC1CCCN(C(=O)c2csc(S(N)(=O)=O)c2)C1 (configuration not stated),-6.186,11.43
O=C(Cc1ccccc1F)N1CCCCC1c1ccn2ccnc2n1 (configuration not stated),1.111,8.247
O=C(CCC1CCCC1)NCc1nnc2ccccn12,7.006,23.94
Cc1cccc(NC(=O)Nc2c[nH]c(=O)[nH]c2=O)c1C,11.88,25
Cn1nc(C(=O)N2CCCC2)c(F)c1NC(=O)Cc1ccccc1,1.554,17.2
CC(=O)N1CC(=O)N(c2cnn(C)c2)CC12CCN(Cc1nccs1)C2 (configuration not stated),1.961,17.14
CCC(=O)N1CCC(c2nnc(Cn3cccn3)n2C2CC2)CC1,2.439,12.5
Cc1cc(C)n(CC2CCCN2C(=O)CCCNc2ncccn2)n1 (configuration not stated),-1.141,4
COc1nn(C)cc1C(=O)N1CCC(c2nnc(-c3ccsc3)o2)CC1,8,2.74
CCc1nc2n(n1)CC(NCc1ncc(-c3ccccc3)o1)CC2 (configuration not stated),6.818,4.545
CCOCCCNC(=O)C1(C)CCC(=O)N1c1ccccc1OC (configuration not stated),-2,1.37
CCN1CC(C(=O)N(C)Cc2cc3cc(F)ccc3[nH]2)CC1=O (configuration not stated),3.863,13.11
Cc1noc(C)c1CN1CCC(N(C)Cc2noc(C(C)C)n2)C1 (configuration not stated),2.632,12.39
Cc1ccccc1SC1CCN(C(=O)C2CNC(=O)N2)CC1 (configuration not stated),2.618,9.677
O=C(CCNC(=O)c1ccccc1F)NCCNc1cccnc1,8.293,32.2
CN1CC2(CCN(C(=O)c3cc(-n4cccn4)ccc3Cl)CC2)OC1=O,2.4,15.04
Cc1ccc(N2CCCC(NCc3ccc(C)o3)C2)nn1 (configuration not stated),4.887,18.92

Repeated from the top, 4 entries:

* COCCn1ccnc1CN(Cc1ccccn1)Cc1sccc1C | TcHisRS: 3.352%; LiHisRS: 4.167%
* CCCC(=O)N(Cc1ccncc1)C(C)CC (configuration not stated) | TcHisRS: 0.9804%; LiHisRS: 4.8%
* O=S(=O)(Cc1ccccc1F)Cc1nnnn1C1CC1 | TcHisRS: 9%; LiHisRS: 17.39%
* CN1CCC(CO[C@H]2CN(C(=O)c3cccn3C)[C@@H]3COC[C@H]23)CC1 | TcHisRS: -3.093%; LiHisRS: 6%

From ChEMBL document CHEMBL3988442, “University of Dundee, Small-Polar-MMV Screening Library” (2021).